Reference: PMC11118698
No constants are given. Whether binding was seen depends on the method and setting. In cells and extracts the contact can be indirect. Some binding calls cover weakened binding; strength is not graded here.

Protein sequences, listed by entry. Tags and fused reporters are not part of them.
UniProt Q14145: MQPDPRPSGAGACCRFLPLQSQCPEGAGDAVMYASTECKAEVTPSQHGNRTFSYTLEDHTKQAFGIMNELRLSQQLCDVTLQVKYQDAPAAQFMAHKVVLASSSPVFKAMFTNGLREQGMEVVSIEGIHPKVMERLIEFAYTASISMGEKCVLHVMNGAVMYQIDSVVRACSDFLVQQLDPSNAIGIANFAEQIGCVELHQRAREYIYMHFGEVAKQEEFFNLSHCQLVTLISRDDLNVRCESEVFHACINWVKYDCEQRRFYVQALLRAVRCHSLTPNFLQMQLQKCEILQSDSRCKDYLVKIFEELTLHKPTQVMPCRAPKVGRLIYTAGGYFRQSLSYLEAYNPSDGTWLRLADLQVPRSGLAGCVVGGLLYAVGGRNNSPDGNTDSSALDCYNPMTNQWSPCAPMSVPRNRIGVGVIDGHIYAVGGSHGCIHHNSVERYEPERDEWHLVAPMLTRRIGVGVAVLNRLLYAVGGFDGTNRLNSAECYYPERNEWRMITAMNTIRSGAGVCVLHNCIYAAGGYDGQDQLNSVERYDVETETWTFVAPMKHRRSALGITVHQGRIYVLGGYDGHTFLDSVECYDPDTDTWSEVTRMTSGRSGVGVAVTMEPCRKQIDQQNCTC
UniProt Q13772: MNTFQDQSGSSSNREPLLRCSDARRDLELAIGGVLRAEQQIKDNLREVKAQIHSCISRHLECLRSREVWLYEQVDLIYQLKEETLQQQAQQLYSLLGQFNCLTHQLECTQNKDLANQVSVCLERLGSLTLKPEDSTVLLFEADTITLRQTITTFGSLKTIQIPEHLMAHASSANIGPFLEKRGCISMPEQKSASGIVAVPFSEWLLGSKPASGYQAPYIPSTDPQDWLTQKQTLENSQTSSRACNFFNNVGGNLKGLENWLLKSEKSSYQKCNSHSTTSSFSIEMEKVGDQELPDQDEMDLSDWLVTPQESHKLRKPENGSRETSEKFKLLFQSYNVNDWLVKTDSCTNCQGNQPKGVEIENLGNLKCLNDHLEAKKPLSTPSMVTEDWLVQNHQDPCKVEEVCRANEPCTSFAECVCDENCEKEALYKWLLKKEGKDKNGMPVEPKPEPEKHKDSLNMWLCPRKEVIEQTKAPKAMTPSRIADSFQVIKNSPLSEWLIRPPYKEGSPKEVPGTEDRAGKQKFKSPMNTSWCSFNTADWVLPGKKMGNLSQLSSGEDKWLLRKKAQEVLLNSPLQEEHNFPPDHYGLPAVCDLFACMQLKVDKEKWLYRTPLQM

Key:
[1] = molecular target: Myc-KEAP1 (Kelch-like ECH-associated protein 1) (UniProt Q14145); assay: co-IP; HEK293 cells co-transfected with Myc-KEAP1 and HA-NCOA4 plasmids; IP with anti-HA or anti-Myc antibody (reciprocal)
[2] = molecular target: HA-NCOA4 (nuclear receptor co-activator 4) (UniProt Q13772); assay: as above

binding [1]	binding [2]	Substance
binds		HA-NCOA4 (nuclear receptor co-activator 4) (from UniProt Q13772 1-614)
	binds	Myc-KEAP1 (Kelch-like ECH-associated protein 1) (from UniProt Q14145 1-624)
